Reference: publication PMC7736794
Residue numbers refer to the chain shown, from its start. These are yes or no findings as the source states them, for the method shown. Binding seen in cells or lysates may run through a third protein. Some binding calls cover weakened binding; strength is not graded here. For some assays here: Sequences can lack the tags named with a protein.

T1: Flag-USP36 wild type (UniProt Q9P275)
T1 sequence: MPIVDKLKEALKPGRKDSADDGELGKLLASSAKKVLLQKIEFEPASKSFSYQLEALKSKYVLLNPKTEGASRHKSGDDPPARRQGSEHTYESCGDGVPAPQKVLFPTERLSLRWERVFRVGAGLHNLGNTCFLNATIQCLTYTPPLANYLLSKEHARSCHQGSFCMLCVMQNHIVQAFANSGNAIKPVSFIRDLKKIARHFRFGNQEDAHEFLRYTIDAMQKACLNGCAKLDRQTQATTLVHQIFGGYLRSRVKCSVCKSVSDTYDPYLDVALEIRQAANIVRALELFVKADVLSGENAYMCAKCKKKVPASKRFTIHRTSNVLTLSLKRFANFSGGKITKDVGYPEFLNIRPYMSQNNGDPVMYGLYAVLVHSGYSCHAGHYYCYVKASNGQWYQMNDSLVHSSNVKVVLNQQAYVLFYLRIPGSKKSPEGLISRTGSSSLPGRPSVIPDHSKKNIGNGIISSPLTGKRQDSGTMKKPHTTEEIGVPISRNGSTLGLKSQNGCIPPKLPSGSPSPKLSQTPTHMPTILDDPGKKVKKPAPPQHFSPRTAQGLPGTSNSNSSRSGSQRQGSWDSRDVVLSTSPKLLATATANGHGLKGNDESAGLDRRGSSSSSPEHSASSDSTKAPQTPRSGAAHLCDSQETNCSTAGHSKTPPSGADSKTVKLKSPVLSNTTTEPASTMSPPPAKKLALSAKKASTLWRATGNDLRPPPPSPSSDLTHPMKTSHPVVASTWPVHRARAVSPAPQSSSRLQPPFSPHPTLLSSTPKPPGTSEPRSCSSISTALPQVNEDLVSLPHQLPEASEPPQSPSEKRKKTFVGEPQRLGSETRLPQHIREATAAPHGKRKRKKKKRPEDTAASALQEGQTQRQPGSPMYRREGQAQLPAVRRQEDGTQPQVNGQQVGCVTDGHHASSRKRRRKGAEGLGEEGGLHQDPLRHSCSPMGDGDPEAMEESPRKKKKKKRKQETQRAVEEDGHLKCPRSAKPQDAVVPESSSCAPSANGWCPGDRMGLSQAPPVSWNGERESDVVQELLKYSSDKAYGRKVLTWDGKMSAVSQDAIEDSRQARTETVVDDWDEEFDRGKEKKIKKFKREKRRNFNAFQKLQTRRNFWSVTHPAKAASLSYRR

T2: USP36 (endogenous, HEK293T) (human (endogenous in HEK293T)) (UniProt Q9P275)
T2 sequence: T1 sequence

T3: USP36 (endogenous, OVCAR8) (human (endogenous in OVCAR8)) (UniProt Q9P275)
T3 sequence: T1 sequence

T4: USP36-WT 2KR mutant, transfected in OVCAR8 (UniProt Q9P275)
T4 sequence: T1 sequence with K329R, K338R

T5: Flag-USP36-WT-K329R/K338R (2KR) (UniProt Q9P275)
T5 sequence: T1 sequence with K329R, K338R

T6: Flag-USP36 1-800 (UniProt Q9P275)
T6 sequence: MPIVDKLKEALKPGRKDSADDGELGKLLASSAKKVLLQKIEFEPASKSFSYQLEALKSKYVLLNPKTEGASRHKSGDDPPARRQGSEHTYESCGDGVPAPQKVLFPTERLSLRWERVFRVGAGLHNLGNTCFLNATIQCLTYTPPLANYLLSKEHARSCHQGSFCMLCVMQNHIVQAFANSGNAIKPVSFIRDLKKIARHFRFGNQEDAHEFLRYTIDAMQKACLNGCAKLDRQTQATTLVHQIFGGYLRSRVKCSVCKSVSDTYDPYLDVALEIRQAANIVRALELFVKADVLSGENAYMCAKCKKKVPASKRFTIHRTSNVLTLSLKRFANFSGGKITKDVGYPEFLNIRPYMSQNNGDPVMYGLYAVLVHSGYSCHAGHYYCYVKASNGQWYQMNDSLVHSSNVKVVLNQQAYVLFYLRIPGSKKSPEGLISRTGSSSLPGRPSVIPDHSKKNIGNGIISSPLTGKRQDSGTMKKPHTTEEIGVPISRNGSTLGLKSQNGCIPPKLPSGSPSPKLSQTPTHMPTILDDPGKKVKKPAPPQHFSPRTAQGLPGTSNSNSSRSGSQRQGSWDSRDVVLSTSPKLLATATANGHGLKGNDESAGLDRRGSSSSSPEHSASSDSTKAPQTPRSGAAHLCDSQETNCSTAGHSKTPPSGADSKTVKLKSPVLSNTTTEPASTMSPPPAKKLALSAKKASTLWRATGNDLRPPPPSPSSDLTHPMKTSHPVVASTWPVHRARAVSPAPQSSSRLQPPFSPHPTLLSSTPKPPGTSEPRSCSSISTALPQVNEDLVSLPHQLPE

T7: Flag-USP36 1-420 (UniProt Q9P275)
T7 sequence: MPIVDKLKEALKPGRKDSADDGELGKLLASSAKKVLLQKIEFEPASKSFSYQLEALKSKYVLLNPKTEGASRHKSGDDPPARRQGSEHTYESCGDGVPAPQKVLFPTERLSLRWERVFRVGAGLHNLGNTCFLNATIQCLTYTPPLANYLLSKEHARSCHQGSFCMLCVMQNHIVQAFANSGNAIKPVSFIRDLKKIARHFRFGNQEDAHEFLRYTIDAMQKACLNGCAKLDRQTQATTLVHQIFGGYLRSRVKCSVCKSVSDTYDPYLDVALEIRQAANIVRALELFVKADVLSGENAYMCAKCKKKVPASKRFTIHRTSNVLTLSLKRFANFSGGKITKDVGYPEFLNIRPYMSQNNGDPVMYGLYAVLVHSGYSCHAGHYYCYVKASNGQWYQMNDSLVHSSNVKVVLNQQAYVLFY

B1: PrimPol (endogenous, HEK293T) (enzyme, UniProt Q96LW4 1-560)
chain: MNRKWEAKLKQIEERASHYERKPLSSVYRPRLSKPEEPPSIWRLFHRQAQAFNFVKSCKEDVHVFALECKVGDGQRIYLVTTYAEFWFYYKSRKNLLHCYEVIPENAVCKLYFDLEFNKPANPGADGKKMVALLIEYVCKALQELYGVNCSAEDVLNLDSSTDEKFSRHLIFQLHDVAFKDNIHVGNFLRKILQPALDLLGSEDDDSAPETTGHGFPHFSEAPARQGFSFNKMFTEKATEESWTSNSKKLERLGSAEQSSPDLSFLVVKNNMGEKHLFVDLGVYTRNRNFRLYKSSKIGKRVALEVTEDNKFFPIQSKDVSDEYQYFLSSLVSNVRFSDTLRILTCEPSQNKQKGVGYFNSIGTSVETIEGFQCSPYPEVDHFVLSLVNKDGIKGGIRRWNYFFPEELLVYDICKYRWCENIGRAHKSNNIMILVDLKNEVWYQKCHDPVCKAENFKSDCFPLPAEVCLLFLFKEEEEFTTDEADETRSNETQNPHKPSPSRLSTGASADAVWDNGIDDAYFLEATEDAELAEAAENSLLSYNSEVDEIPDELIIEVLQE
B2: PrimPol (endogenous, OVCAR8) (enzyme, UniProt Q96LW4 1-560)
chain: B1 chain
B3: Myc-PrimPol WT (enzyme, UniProt Q96LW4 1-560)
chain: B1 chain

Experiments:
[1] = molecular target: T1, Flag-USP36 wild type; test: co-IP; lysates of HEK293T or USP36 knock-down HEK293T cells transfected with Flag-USP36 constructs (with or without Myc-PrimPol), precipitated with anti-Flag agarose beads, NETN buffer; cells untreated or treated with HU (10 mM, 8 h) or MG132 (50 μM, 3 h)
[2] = molecular target: T2, USP36 (endogenous, HEK293T) (human (endogenous in HEK293T)); test: co-IP; HEK293T lysate (NETN buffer, 500 mM NaCl, 0.5% NP-40) precipitated with anti-USP36 antibody or control IgG and agarose beads overnight at 4°C; blotted for PrimPol
[3] = molecular target: T3, USP36 (endogenous, OVCAR8) (human (endogenous in OVCAR8)); test: proximity ligation; Duolink in situ PLA with USP36 and PrimPol antibodies in fixed OVCAR8 cells (endogenous proteins, or USP36 knock-down cells transfected with USP36 WT or 2KR); untreated or HU (10 mM, 4 h) or UV (4 h)
[4] = molecular target: T4, USP36-WT 2KR mutant, transfected in OVCAR8; test: as above
[5] = molecular target: T5, Flag-USP36-WT-K329R/K338R (2KR); test: co-IP; lysates of HEK293T or USP36 knock-down HEK293T cells transfected with Flag-USP36 constructs (with or without Myc-PrimPol), precipitated with anti-Flag agarose beads, NETN buffer; cells untreated or treated with HU (10 mM, 8 h) or MG132 (50 μM, 3 h)
[6] = molecular target: T6, Flag-USP36 1-800; test: as above
[7] = molecular target: T7, Flag-USP36 1-420; test: as above

Row | Binder | binding [1] | binding [2] | binding [3] | binding [4] | binding [5] | binding [6] | binding [7]
1 | B1 | binds | binds | – | – | – | – | –
2 | B2 | – | – | binds | binds | – | – | –
3 | B3 | binds | – | – | – | binds | binds | binds
